The target of the assay is Flag-METTL3 (methyltransferase-like 3) (human) (UniProt Q86U44). The experiment in a line: affinity purification with mass spectrometry; pFlag-METTL3-transfected RD cells infected with EV71; IP with anti-Flag antibody; MS analysis.

The chains behind the UniProt entries cited, without tags or fusion partners.
UniProt Q86U44: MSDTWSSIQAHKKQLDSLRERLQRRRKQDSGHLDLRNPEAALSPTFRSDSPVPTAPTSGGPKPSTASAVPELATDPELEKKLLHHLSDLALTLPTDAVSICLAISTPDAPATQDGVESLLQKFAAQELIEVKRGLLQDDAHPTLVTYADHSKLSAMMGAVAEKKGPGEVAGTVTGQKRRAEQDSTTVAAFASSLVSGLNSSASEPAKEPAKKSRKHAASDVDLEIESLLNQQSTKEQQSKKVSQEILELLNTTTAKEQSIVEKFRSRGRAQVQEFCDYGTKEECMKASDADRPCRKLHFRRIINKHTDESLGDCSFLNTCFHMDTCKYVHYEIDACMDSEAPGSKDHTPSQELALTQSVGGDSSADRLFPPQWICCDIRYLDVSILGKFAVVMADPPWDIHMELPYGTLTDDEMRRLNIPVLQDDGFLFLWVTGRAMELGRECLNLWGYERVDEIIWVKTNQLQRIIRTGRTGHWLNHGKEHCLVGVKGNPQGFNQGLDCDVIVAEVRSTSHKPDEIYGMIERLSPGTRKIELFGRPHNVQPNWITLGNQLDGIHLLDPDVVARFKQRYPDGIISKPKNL
UniProt O43823: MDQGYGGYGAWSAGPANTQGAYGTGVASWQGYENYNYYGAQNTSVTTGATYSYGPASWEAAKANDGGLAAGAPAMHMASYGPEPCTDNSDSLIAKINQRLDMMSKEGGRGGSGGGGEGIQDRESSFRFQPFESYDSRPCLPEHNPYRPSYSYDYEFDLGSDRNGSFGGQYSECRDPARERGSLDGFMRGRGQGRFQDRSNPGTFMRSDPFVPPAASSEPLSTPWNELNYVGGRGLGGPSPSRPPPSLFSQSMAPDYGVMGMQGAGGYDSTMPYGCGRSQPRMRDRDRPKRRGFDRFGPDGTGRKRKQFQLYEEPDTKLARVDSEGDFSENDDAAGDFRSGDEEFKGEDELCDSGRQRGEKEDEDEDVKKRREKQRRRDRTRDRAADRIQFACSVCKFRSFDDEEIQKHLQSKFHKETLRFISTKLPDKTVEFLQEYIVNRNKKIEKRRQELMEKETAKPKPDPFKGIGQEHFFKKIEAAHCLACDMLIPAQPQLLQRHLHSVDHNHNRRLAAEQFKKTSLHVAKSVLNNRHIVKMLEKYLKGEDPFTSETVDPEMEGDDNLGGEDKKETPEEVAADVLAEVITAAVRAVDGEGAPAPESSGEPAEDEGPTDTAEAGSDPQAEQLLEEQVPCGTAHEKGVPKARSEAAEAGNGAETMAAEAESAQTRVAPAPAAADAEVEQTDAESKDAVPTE

These are yes or no findings as the source states them, for the method shown. Binding seen in cells or lysates may run through a third protein. These calls come from enrichment with a bait or labelling near it, and not all partners need be listed.

Turning to “AKAP8, endogenous (from UniProt O43823 1-692)”, the binding result was “binds”.

Values taken from PMC11700651.
